Data as given in PubChem BioAssay AID1224830 (NIAID, 2016)
Shown is a random part of about 18,000 deposited reagents. Over the whole deposit, about 2,900 (16%) are marked active. 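Calls are made per well; low scores hint the gene aids the LPS response, high scores that it dampens it.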 Repeated entries: four replicate wells of each siRNA pool.

Assay: 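Host factors that control LPS-induced TNF expression in human macrophages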 (primary screen)
Cell system: human THP-1 monocytic leukaemia cells, TNF dual-luciferase reporter clone, PMA-differentiated to macrophage-like cells
Knock-down reagent: siRNA pool against human genes, 50 nM
Duration: LPS for 4 h, given about 3 days after siRNA transfection
Challenge: bacterial LPS (TLR4 ligand), 10 ng/ml
Measured: 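TNF firefly reporter luminescence divided by renilla, normalised to the plate median, then turned into a robust z-score for each replicate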
Scale: TNF reporter robust z-score: higher = stronger TNF reporter response to LPS
Hit rule: 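Each well counts as active if its z-score is over 2.8 or under -1.5; controls are left without a call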

target,TNF reporter robust z-score,Call
NUP153 (nucleoporin 153),0.31,inactive
NUP153 (nucleoporin 153),0.13,inactive
NUP153 (nucleoporin 153),-0.42,inactive
NUP153 (nucleoporin 153),-0.31,inactive
APOC2 (apolipoprotein C2),-1.47,inactive
APOC2 (apolipoprotein C2),-1.35,inactive
APOC2 (apolipoprotein C2),-1.87,active
APOC2 (apolipoprotein C2),-1.29,inactive
LAMA2 (laminin subunit alpha 2),-0.5,inactive
LAMA2 (laminin subunit alpha 2),-0.68,inactive
LAMA2 (laminin subunit alpha 2),-1.02,inactive
LAMA2 (laminin subunit alpha 2),0.41,inactive
CORO7 (coronin 7),-0.31,inactive
CORO7 (coronin 7),-0.17,inactive
CORO7 (coronin 7),-0.61,inactive
CORO7 (coronin 7),1.63,inactive
USP47 (ubiquitin specific peptidase 47),-0.34,inactive
USP47 (ubiquitin specific peptidase 47),-0.42,inactive
USP47 (ubiquitin specific peptidase 47),-0.43,inactive
USP47 (ubiquitin specific peptidase 47),0.2,inactive
FHOD1 (formin homology 2 domain containing 1),1.6,inactive
FHOD1 (formin homology 2 domain containing 1),2.73,inactive
FHOD1 (formin homology 2 domain containing 1),1.62,inactive
FHOD1 (formin homology 2 domain containing 1),1.97,inactive
NPPC (natriuretic peptide C),1.33,inactive
NPPC (natriuretic peptide C),2.32,inactive
NPPC (natriuretic peptide C),1.65,inactive
EIF3E (eukaryotic translation initiation factor 3 subunit E),-0.86,inactive
EIF3E (eukaryotic translation initiation factor 3 subunit E),-0.16,inactive
EIF3E (eukaryotic translation initiation factor 3 subunit E),-1.1,inactive
EIF3E (eukaryotic translation initiation factor 3 subunit E),-0.57,inactive
ACP4 (acid phosphatase 4),-1.08,inactive
ACP4 (acid phosphatase 4),0.05,inactive
ACP4 (acid phosphatase 4),-0.49,inactive
PGGHG (protein-glucosylgalactosylhydroxylysine glucosidase),0.12,inactive
PGGHG (protein-glucosylgalactosylhydroxylysine glucosidase),1.5,inactive
PGGHG (protein-glucosylgalactosylhydroxylysine glucosidase),0.44,inactive
PGGHG (protein-glucosylgalactosylhydroxylysine glucosidase),1.63,inactive
MMP15 (matrix metallopeptidase 15),0,inactive
MMP15 (matrix metallopeptidase 15),1.1,inactive
MMP15 (matrix metallopeptidase 15),-0.44,inactive
MMP15 (matrix metallopeptidase 15),0.01,inactive
PKD2L2,-0.73,inactive
PKD2L2,1.53,inactive
PKD2L2,1,inactive
PKD2L2,-0.59,inactive
